For assay [1], the target named is MBP-TrkB-454-821 (UniProt Q63604). Description: pull-down; competition: MBP-TrkB-454-821 on amylose resin, 1 μg GST-SIPA1L2-1-624, 10× molar excess of TAT-SIPA1L2 or TAT-scr peptide, 4 °C overnight; detection with anti-SIPA1L2; both purified.
Assay [2] shares this target. Description: pull-down; MBP-TrkB fragments on amylose resin, 2 μg of GST-SIPA1L2 fragment overnight at 4 °C; 20 mM Tris pH 7.5, 1 mM DTT, 3 mM EDTA, 100 mM NaCl, 0.3% TritonX-100; both purified.
The target in assay [3] is T1, Intein-tagged SIPA1L2-470-1025 (UniProt Q5JCS6).
T1 sequence: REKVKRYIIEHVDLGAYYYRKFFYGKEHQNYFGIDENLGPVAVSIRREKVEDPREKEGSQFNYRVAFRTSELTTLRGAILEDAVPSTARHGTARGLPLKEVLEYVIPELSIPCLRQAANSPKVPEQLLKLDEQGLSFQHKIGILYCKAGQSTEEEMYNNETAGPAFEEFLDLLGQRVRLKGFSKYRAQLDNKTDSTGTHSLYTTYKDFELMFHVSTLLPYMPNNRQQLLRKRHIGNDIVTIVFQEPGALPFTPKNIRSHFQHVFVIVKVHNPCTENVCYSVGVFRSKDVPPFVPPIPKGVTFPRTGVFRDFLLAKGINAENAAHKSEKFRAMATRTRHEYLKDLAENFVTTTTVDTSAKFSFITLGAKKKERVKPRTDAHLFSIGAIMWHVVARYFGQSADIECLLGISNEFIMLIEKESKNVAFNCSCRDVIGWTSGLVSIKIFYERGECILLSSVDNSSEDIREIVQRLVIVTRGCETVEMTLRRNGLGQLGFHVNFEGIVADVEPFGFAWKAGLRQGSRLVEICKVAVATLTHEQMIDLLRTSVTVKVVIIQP
Description: pull-down; Intein-SIPA1L2 RapGAP construct (470-1025 by the legend) on chitin resin, purified 6xHis-LC3b in the presence of an excess (5×) of purified 6xHis-Snapin, TBS, 4 °C; both purified.

Chains of the proteins cited; added tags and fusions are not shown. Residues count along the entry.
UniProt Q63604, residues 454-821: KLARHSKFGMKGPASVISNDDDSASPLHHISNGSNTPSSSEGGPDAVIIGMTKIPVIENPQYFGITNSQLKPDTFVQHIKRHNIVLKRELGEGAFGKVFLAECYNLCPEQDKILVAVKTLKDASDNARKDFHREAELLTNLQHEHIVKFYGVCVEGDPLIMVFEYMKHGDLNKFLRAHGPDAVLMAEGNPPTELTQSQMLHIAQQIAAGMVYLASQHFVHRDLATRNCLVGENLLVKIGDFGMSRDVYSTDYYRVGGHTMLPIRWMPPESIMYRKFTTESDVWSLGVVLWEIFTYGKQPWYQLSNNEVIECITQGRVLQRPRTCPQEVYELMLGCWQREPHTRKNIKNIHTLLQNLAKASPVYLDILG

Assay [4] deals with T2, GFP-Snapin-S50D (UniProt P60192).
T2 sequence: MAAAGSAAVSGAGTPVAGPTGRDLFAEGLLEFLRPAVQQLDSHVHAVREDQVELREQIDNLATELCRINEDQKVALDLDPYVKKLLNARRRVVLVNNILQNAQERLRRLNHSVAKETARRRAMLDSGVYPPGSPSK
Description: co-IP; heterologous, HEK293T lysate, lysis buffer without SDS; GFP-Snapin forms precipitated with anti-GFP magnetic beads.

Assay [5] deals with T3, GFP-Snapin-S50A (UniProt P60192).
T3 sequence: T2 sequence with D50A
Described as above.

The target of assay [6] is T4, GST-SIPA1l2-86-99 (UniProt Q5JCS6).
T4 sequence: PKKDCSKDLACKTL
The assay can be described thus: pull-down; 10 µg GST-SIPA1l2-86-99 or GST on Glutathione Sepharose, 20 μg MBP-TrkB-454-465, 120 min at 4 °C in PBS; washes with 0.1% Triton X-100; both purified.

The target of assay [7] is T5, GFP-Snapin (UniProt P60192).
T5 sequence: T2 sequence with D50S
The assay can be described thus: co-IP; heterologous, HEK293T lysate, lysis buffer without SDS; GFP-Snapin forms precipitated with anti-GFP magnetic beads.

Changes are numbered by the printed parent chain. No constants are given. Whether binding was seen depends on the method and setting. For part of these data: In cells and extracts the contact can be indirect. Some results given as binding are weak or reduced against the parent protein; the word gives no strength. Tags and fused reporters may be left off the sequences shown.

This note sets out measurements from article PMC6884526.

B1: TAT-SIPA1L2 peptide (peptide, UniProt Q5JCS6 86-99)
peptide: PKKDCSKDLACKTL
For B1, in assay [1], the binding result was “binds”.

B2: GST-ActI-SIPA1L2-1-624 (domain or fragment, UniProt Q5JCS6 1-624)
chain: MSDPRPSQAEKHKLGRAASKFKDPSRAMQSDDYFARKFKAINGSMGPATLNTSSLSEGGGGGGGPANGTPAVPKMGVRARVSEWPPKKDCSKDLACKTLWESRSQSSYESATSIIQNGQNDQVDRQQEEQLDLDFVEAKYTIGDIFVHSPQRGLHPIRQRSNSDITISDIDTEDVLDQHAVNPNTGAALHREYGSTSSIDRQGLSGENVFAMLRGYRIESYDPKVTSSFGFPDFFPCDTAISPSLHAAAQISRGEFVRISGLDYMDGGLLMGRDRDKPFKRRLKSESVETSLFRKLRTVKSEHETFKFTSDLEEGRLDRGIRPWSCQRCFAHYDVQSILFNINEAMATRASVGKRKNITTGASAASQTPVPVGPAGGCESPLGSKEDLNAKENPDADEGDGKSNDLVLSCPYFRNETGGEGDRRIALSRANSASFSSGESCSFESSLSSHCTNAGVSVLEVPRENQPIHREKVKRYIIEHVDLGAYYYRKFFYGKEHQNYFGIDENLGPVAVSIRREKVEDPREKEGSQFNYRVAFRTSELTTLRGAILEDAVPSTARHGTARGLPLKEVLEYVIPELSIPCLRQAANSPKVPEQLLKLDEQGLSFQHKIGILYCKAGQSTEEE
Take B2: the binding entry in assay [2] and in assay [1] was “binds” each time.

B3: 6xHis-Snapin (protein, UniProt P60192 1-136)
chain: T2 sequence with D50S
As to B3, the binding result in assay [3] is “binds”.

B4: SIPA1L2-470-1025-tRFP (domain or fragment, UniProt Q5JCS6 470-1025)
chain: T1 sequence
For the molecule B4, the binding entry in assay [4] and in assay [5] was “binds” in each case.

B5: MBP-TrkB-454-465 (peptide, UniProt Q63604 454-465)
chain: KLARHSKFGMKG
With B5, the binding entry in assay [6] is “binds”.

B6: GST-ActII-SIPA1L2-1026-1650 (domain or fragment, UniProt Q5JCS6 1026-1650)
chain: HEDGSPRRGCSELCRIPMVEYKLDSEGTPCEYKTPFRRNTTWHRVPTPALQPVSRASPVPGTPDRLQCQPLLQQAQAAIPRSTSFDRKLPDGTRSSPSNQSSSSDPGPGGSGPWRPQVGYDGCPSPLLLEPQGPGSVECDGSGDHEDLMEVGRLPETKWHGPPSKVLSSYKERALQKDGSCKDSPNKLSHIGDKSCSSHSSSNTLSSNTSSNSDDKHFGSGDLMDPELLGLTYIKGASTDSGIDTTPCMPATILGPMHLTGSRSLIHSRAEQWADAADVSGADEDPAKMYTLHGYASAISSSAADGSMGDLSEVSSHSSGSHRSGSPSTHCSKSTGSLDSSKVYIVTHSGGQQVPGAVAKPYHRQGAANKYVIGWKKSEGSPPPEEPEVTECPRIYGEMDIMSTASQHPAVVGDSVPEAQHVLSKDDFLKLMLPDSPLVEEGRRKFSFYGNLSPRRSLYRTLSDESVCSNRRGSSFASSRSSILDQALPNDILFSTTPPYHSTLPPRTHPAPSMGSLRNEFWFSDGSLSDKSKCADPGLMPLPDTAAGLDWSHLVDAARAFEGLDSDEELGLLCHHASYLDQRVASFCTLTDLQHGQELEGAPELSLCVDPTSGKEFMDTPGERS
Regarding B6, the binding result in assay [2] is “no binding (tested: 2 μg of GST-ActII-SIPA1L2-1026-1650)”.

B7: PDZ-SIPA1L2-tRFP (domain or fragment, UniProt Q5JCS6 951-1027)
chain: EMTLRRNGLGQLGFHVNFEGIVADVEPFGFAWKAGLRQGSRLVEICKVAVATLTHEQMIDLLRTSVTVKVVIIQPHE
Consider B7, for which the binding result in assay [7] is recorded as “binds”.
